Test results from paper PMC8225385.
Residue numbers refer to the chain shown, from its start. Results are given in words; binding and its absence hold for the method and conditions named. Binding seen in cells or lysates may run through a third protein. Some binding calls cover weakened binding; strength is not graded here. For some of these results: Tags and fused reporters may be left off the sequences shown.

Assays:
[1] = molecular target: c-Myc-tagged wild-type PKC-θ (UniProt Q04759); test: co-IP; reciprocal IPs from lysates of transfected Jurkat-TAg cells: tagged RanGAP1 with endogenous PKC-θ, or c-Myc-tagged PKC-θ with endogenous RanGAP1; immunoblot
[2] = molecular target: T1, c-Myc-tagged PKC-θ-A148E (UniProt Q04759); test: as above
T1 sequence: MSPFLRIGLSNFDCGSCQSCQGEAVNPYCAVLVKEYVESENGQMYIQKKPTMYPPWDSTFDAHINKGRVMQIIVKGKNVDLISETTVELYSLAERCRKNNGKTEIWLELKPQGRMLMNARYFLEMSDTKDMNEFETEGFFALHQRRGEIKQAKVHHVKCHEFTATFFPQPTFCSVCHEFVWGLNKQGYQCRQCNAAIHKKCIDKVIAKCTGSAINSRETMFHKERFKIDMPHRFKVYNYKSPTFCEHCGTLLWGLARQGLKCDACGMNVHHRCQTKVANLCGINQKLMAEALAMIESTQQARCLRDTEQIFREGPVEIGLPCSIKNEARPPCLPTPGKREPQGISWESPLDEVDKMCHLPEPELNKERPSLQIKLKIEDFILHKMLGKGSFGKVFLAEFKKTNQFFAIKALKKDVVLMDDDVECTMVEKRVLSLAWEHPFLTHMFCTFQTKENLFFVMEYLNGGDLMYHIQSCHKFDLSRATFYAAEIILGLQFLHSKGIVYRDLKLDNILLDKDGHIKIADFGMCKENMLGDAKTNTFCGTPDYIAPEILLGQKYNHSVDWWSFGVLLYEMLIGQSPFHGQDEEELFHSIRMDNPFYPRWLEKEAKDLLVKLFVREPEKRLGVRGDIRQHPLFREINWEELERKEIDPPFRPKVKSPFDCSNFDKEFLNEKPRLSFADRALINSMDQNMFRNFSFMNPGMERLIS

[3] = molecular target: T2, RanGAP1, non-sumoylated form, endogenous, human (human (endogenous in Jurkat)) (UniProt P46060); test: co-IP; reciprocal IPs of endogenous PKC-θ or RanGAP1 from Jurkat E6.1 cells stimulated 0-15 min with anti-CD3 plus anti-CD28; weak constitutive interaction with sumoylated RanGAP1, increased on stimulation
T2 sequence: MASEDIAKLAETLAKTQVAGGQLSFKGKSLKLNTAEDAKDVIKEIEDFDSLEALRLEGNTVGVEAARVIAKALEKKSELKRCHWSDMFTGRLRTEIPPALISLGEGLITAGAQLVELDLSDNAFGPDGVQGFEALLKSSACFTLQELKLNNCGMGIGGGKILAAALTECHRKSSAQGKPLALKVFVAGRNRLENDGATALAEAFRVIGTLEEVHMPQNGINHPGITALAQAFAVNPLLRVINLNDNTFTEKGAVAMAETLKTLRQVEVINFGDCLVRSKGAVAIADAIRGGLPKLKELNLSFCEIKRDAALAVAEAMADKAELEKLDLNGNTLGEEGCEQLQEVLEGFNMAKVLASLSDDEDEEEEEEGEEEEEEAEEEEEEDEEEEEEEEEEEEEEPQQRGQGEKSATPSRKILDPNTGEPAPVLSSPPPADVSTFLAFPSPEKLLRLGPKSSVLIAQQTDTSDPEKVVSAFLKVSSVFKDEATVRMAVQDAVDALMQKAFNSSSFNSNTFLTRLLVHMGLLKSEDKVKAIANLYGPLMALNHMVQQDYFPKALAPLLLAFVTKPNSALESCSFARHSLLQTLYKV

[4] = molecular target: RanGAP1-SUMO1 (SUMO1-conjugated RanGAP1), endogenous, human (human (endogenous in Jurkat)) (UniProt P46060+P63165); test: as above
[5] = molecular target: T3, Flag-tagged RanGAP1-K524R (human) (UniProt P46060); test: co-IP; reciprocal IPs from lysates of transfected Jurkat-TAg cells: tagged RanGAP1 with endogenous PKC-θ, or c-Myc-tagged PKC-θ with endogenous RanGAP1; immunoblot
T3 sequence: T2 sequence with K524R

[6] = molecular target: T4, GST-RanGAP1 (human) (UniProt P46060); test: pull-down; GST-fusion proteins (purified from E. coli) with lysate of unstimulated Jurkat E6.1 cells; PKC-θ detected by immunoblot; only the target purified
T4 sequence: T2 sequence

[7] = molecular target: T4, GST-RanGAP1 (human); test: pull-down; in vitro protein direct binding assay with GST-fusion proteins (scheme in Figure 2A; not described in the methods)

binding [1] | binding [2] | binding [3] | binding [4] | binding [5] | binding [6] | binding [7] | Substance
binds | binds |  |  |  |  |  | RanGAP1-SUMO1 (SUMO1-conjugated RanGAP1), endogenous, human (from UniProt P46060 1-587; P63165 1-97) (complex)
 |  | binds | binds | binds | binds | binds | protein kinase C-θ (PKC-θ), endogenous, human T cells (from UniProt Q04759-1 1-706) (enzyme)
